Results: the supplement of paper PMC8728848
Some of the results follow.

Tests used:
Experiment in all cases: glycan array binding signal (z-score within array); higher = stronger binding
Settings in all cases: glycan notation: IUPAC condensed, linker removed
GlcNAc(b1-3)GalNAc = biological target: GlcNAc(b1-3)GalNAc
Outline: (§1)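 The Consortium for Functional Glycomics database supplied 3228 glycan arrays, of which those lacking an available protein sequence were dropped. The binding signal, a within-array Z-score, was averaged across arrays of the same protein sequence and across linkers. Negative scores can be read as non-binding.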

GlcNAc(b1-3)Man = biological target: GlcNAc(b1-3)Man
Outline: as §1

[1] = biological target: GlcNAc(b1-3)[GlcNAc(b1-4)][GlcNAc(b1-6)]GlcNAc
Outline: as §1

[2] = biological target: GlcNAc(b1-3)[GlcNAc(b1-6)]Gal(b1-4)GlcNAc
Outline: as §1

[3] = biological target: GlcNAc(b1-3)[GlcNAc(b1-6)]GalNAc
Outline: as §1

[4] = biological target: GlcNAc(b1-4)Gal(b1-4)GlcNAc
Outline: as §1

GlcNAc(b1-4)GlcNAc = biological target: GlcNAc(b1-4)GlcNAc
Outline: as §1

[5] = biological target: GlcNAc(b1-4)GlcNAc(b1-4)GlcNAc
Outline: as §1

[6] = biological target: GlcNAc(b1-4)GlcNAc(b1-4)GlcNAc(b1-4)GlcNAc(b1-4)GlcNAc
Outline: as §1

[7] = biological target: GlcNAc(b1-4)GlcNAc(b1-4)GlcNAc(b1-4)GlcNAc(b1-4)GlcNAc(b1-4)GlcNAc
Outline: as §1

[8] = biological target: GlcNAc(b1-4)[GlcNAc(b1-6)]GalNAc
Outline: as §1

[9] = biological target: GlcNAc(b1-6)Gal(b1-4)GlcNAc
Outline: as §1

GlcNAc(b1-6)GalNAc = biological target: GlcNAc(b1-6)GalNAc
Outline: as §1

[10] = biological target: GlcNAc6S(b1-3)Gal(b1-4)GlcNAc
Outline: as §1

Kdn(a2-3)Gal(b1-3)GalNAc = biological target: Kdn(a2-3)Gal(b1-3)GalNAc
Outline: as §1

Kdn(a2-3)Gal(b1-3)GlcNAc = biological target: Kdn(a2-3)Gal(b1-3)GlcNAc
Outline: as §1

Kdn(a2-3)Gal(b1-4)Glc = biological target: Kdn(a2-3)Gal(b1-4)Glc
Outline: as §1

Kdn(a2-3)Gal(b1-4)GlcNAc = biological target: Kdn(a2-3)Gal(b1-4)GlcNAc
Outline: as §1

[11] = biological target: Kdn(a2-3)Gal(b1-4)[Fuc(a1-3)]GlcNAc
Outline: as §1

Kdn(a2-6)Gal(b1-4)GlcNAc = biological target: Kdn(a2-6)Gal(b1-4)GlcNAc
Outline: as §1

[12] = biological target: Man(a1-2)Man(a1-2)Man(a1-3)Man
Outline: as §1

[13] = biological target: Man(a1-2)Man(a1-2)Man(a1-6)[Man(a1-3)]Man
Outline: as §1

Man(a1-2)Man(a1-3)Man = biological target: Man(a1-2)Man(a1-3)Man
Outline: as §1

[14] = biological target: Man(a1-2)Man(a1-3)[Man(a1-2)Man(a1-6)]Man
Outline: as §1

[15] = biological target: Man(a1-2)Man(a1-3)[Man(a1-2)Man(a1-6)]Man(a1-6)[Man(a1-2)Man(a1-2)Man(a1-3)]Man
Outline: as §1

[16] = biological target: Man(a1-2)Man(a1-3)[Man(a1-2)Man(a1-6)]Man(a1-6)[Man(a1-2)Man(a1-2)Man(a1-3)]Man(b1-4)GlcNAc(b1-4)GlcNAc
Outline: as §1

[17] = biological target: Man(a1-2)Man(a1-3)[Man(a1-6)]Man(a1-6)[Man(a1-2)Man(a1-3)]Man(b1-4)GlcNAc(b1-4)GlcNAc
Outline: as §1

[18] = biological target: Man(a1-2)Man(a1-6)[Man(a1-3)]Man(a1-6)[Man(a1-2)Man(a1-2)Man(a1-3)]Man
Outline: as §1

[19] = biological target: Man(a1-2)Man(a1-6)[Man(a1-3)]Man(a1-6)[Man(a1-2)Man(a1-2)Man(a1-3)]Man(b1-4)GlcNAc(b1-4)GlcNAc
Outline: as §1

Man(a1-3)[Man(a1-6)]Man = biological target: Man(a1-3)[Man(a1-6)]Man
Outline: as §1

[20] = biological target: Man(a1-3)[Man(a1-6)]Man(a1-6)[Man(a1-2)Man(a1-3)]Man(b1-4)GlcNAc(b1-4)GlcNAc
Outline: as §1

[21] = biological target: Man(a1-3)[Man(a1-6)]Man(a1-6)[Man(a1-3)]Man
Outline: as §1

[22] = biological target: Man(a1-3)[Man(a1-6)]Man(a1-6)[Man(a1-3)]Man(b1-4)GlcNAc(b1-4)GlcNAc
Outline: as §1

[23] = biological target: Man(a1-3)[Man(a1-6)]Man(b1-4)GlcNAc(b1-4)GlcNAc
Outline: as §1

[24] = biological target: Man(a1-3)[Man(a1-6)]Man(b1-4)GlcNAc(b1-4)[Fuc(a1-6)]GlcNAc
Outline: as §1

Man(a1-6)Man = biological target: Man(a1-6)Man
Outline: as §1

Man(b1-4)GlcNAc = biological target: Man(b1-4)GlcNAc
Outline: as §1

MurNAc(b1-4)GlcNAc = biological target: MurNAc(b1-4)GlcNAc
Outline: as §1

B1: Clec12b (Mus musculus), Q149M0 (protein)
chain: MSDEVTYATLMLQDSARVRGNQDGNNLRKEGHPAQSSLWRGAALSLMTLCLVLVTGLVTLATMFLQVSNDINSDSEKLSQLQKSIHPQQDNLSESLNSSRKSLTEESLQSQISALLERQEQMATKLCKEFLIHASDHKCNPCPKTWQWYGNSCYYFSINEEKSWSDSRKDCIDKNATLVKIDSTEERDLLQSQLSLTFSFFWLGLSWNSSGRNWLWEDGSFPPPTLFSDKELASFNGSRDCAYFERGNIYASRCSAEIPWICEKTASLVKTEDLD
- glycan array binding signal (z-score) (GlcNAc(b1-3)GalNAc): 0.303
- glycan array binding signal (z-score) (GlcNAc(b1-3)Man): -0.352
- glycan array binding signal (z-score) [1]: -0.245
- glycan array binding signal (z-score) [2]: -0.689
- glycan array binding signal (z-score) [3]: -0.524
- glycan array binding signal (z-score) [4]: -0.264
- glycan array binding signal (z-score) (GlcNAc(b1-4)GlcNAc): 0.029
- glycan array binding signal (z-score) [5]: 0.034
- glycan array binding signal (z-score) [6]: -0.504
- glycan array binding signal (z-score) [7]: -0.433
- glycan array binding signal (z-score) [8]: 0.025
- glycan array binding signal (z-score) [9]: -0.193
- glycan array binding signal (z-score) (GlcNAc(b1-6)GalNAc): -0.534
- glycan array binding signal (z-score) [10]: 0.025
- glycan array binding signal (z-score) (Kdn(a2-3)Gal(b1-3)GalNAc): 0.152
- glycan array binding signal (z-score) (Kdn(a2-3)Gal(b1-3)GlcNAc): -0.7
- glycan array binding signal (z-score) (Kdn(a2-3)Gal(b1-4)Glc): -0.755
- glycan array binding signal (z-score) (Kdn(a2-3)Gal(b1-4)GlcNAc): 0.252
- glycan array binding signal (z-score) [11]: -0.268
- glycan array binding signal (z-score) (Kdn(a2-6)Gal(b1-4)GlcNAc): -0.651
- glycan array binding signal (z-score) [12]: -0.401
- glycan array binding signal (z-score) [13]: -0.463
- glycan array binding signal (z-score) (Man(a1-2)Man(a1-3)Man): -0.099
- glycan array binding signal (z-score) [14]: -0.681
- glycan array binding signal (z-score) [15]: -0.118
- glycan array binding signal (z-score) [16]: -0.409
- glycan array binding signal (z-score) [17]: -0.283
- glycan array binding signal (z-score) [18]: -0.526
- glycan array binding signal (z-score) [19]: -0.428
- glycan array binding signal (z-score) (Man(a1-3)[Man(a1-6)]Man): 0.423
- glycan array binding signal (z-score) [20]: -0.327
- glycan array binding signal (z-score) [21]: 1.62
- glycan array binding signal (z-score) [22]: -0.663
- glycan array binding signal (z-score) [23]: 0.135
- glycan array binding signal (z-score) [24]: -0.571
- glycan array binding signal (z-score) (Man(a1-6)Man): 0.751
- glycan array binding signal (z-score) (Man(b1-4)GlcNAc): 0.308
- glycan array binding signal (z-score) (MurNAc(b1-4)GlcNAc): -0.784
